Among the data in PMC5347793, “Transcription factor LSF-DNMT1 complex dissociation by FQI1 leads to aberrant DNA methylation and gene expression” (Oncotarget, 2016) are binding values, retold here.

Protein sequences, listed by entry. Tags and fused reporters are not part of them.
UniProt P26358: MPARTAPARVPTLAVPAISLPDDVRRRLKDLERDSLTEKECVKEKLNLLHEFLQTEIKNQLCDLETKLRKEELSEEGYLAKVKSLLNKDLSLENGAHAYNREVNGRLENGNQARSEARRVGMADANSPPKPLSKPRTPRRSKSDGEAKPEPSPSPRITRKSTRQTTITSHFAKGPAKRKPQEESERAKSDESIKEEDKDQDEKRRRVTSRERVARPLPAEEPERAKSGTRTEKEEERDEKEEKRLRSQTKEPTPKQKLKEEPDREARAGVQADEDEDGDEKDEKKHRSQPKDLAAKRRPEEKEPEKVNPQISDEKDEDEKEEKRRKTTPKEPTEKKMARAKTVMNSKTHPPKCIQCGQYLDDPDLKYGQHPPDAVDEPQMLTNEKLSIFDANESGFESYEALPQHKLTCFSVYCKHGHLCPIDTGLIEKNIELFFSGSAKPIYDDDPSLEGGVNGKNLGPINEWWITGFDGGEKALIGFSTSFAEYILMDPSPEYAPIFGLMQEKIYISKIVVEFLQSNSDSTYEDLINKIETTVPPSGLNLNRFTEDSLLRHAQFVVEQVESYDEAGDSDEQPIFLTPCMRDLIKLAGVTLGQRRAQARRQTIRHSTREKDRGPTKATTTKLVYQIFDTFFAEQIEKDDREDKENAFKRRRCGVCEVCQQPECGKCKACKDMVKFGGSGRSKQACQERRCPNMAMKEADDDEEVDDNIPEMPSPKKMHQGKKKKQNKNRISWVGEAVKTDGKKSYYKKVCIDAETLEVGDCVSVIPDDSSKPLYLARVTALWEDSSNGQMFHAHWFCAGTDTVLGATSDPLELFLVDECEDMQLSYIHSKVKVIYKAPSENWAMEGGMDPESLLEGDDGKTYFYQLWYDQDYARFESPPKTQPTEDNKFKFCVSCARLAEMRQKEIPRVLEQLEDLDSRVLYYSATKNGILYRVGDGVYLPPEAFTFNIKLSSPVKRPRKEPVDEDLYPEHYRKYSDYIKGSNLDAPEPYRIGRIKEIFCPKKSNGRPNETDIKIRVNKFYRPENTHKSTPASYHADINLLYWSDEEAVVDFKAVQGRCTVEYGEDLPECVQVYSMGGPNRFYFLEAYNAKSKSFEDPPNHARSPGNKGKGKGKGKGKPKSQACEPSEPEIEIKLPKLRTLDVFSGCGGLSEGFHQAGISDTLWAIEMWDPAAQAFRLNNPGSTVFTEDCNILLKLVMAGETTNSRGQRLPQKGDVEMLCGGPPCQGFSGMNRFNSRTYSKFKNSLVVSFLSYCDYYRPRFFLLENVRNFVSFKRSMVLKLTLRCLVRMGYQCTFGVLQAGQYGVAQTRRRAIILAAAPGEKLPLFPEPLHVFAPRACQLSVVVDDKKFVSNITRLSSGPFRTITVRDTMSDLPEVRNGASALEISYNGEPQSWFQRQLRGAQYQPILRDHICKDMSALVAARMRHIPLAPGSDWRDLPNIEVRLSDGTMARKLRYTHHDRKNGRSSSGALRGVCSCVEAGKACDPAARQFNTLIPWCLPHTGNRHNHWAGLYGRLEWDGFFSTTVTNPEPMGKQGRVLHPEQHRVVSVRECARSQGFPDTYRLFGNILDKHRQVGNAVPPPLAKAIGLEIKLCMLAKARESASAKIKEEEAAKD

Assay [1] addresses T1, transcription factor LSF (Late SV40 Factor), endogenous (human (endogenous in HEK293T)) (UniProt Q12800).
T1 sequence: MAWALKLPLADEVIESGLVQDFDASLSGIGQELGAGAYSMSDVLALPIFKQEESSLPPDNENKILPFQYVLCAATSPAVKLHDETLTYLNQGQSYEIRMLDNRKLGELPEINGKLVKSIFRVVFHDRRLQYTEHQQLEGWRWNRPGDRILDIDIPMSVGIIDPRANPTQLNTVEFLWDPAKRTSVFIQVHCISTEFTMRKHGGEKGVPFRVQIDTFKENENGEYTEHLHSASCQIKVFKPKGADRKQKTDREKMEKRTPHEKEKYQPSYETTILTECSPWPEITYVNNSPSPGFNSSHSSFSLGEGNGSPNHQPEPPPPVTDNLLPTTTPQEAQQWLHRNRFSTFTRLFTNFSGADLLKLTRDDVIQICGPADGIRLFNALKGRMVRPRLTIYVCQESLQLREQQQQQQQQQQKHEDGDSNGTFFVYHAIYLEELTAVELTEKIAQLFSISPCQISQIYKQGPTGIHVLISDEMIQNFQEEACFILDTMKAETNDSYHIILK
The assay is described as follows: co-IP; endogenous proteins of HEK293T cells (nuclear extract in the results, 1 mg whole cell lysate in the methods); IP with anti-LSF or anti-DNMT1 antibody, normal IgG as control; untreated or DMSO control; western blot. In general terms: In western blotting, separated proteins are transferred to a membrane and probed.

In assay [2] the target is maintenance DNA (cytosine-5) methyltransferase 1 (DNMT1), endogenous (human (endogenous in HEK293T)) (UniProt P26358). The assay is described as above.

Results are given in words; binding and its absence hold for the method and conditions named. In cells and extracts the contact can be indirect. Some results given as binding are weak or reduced against the parent protein; the word gives no strength.

B1: UHRF1, endogenous (protein, UniProt Q96T88 1-793)
chain: MWIQVRTMDGRQTHTVDSLSRLTKVEELRRKIQELFHVEPGLQRLFYRGKQMEDGHTLFDYEVRLNDTIQLLVRQSLVLPHSTKERDSELSDTDSGCCLGQSESDKSSTHGEAAAETDSRPADEDMWDETELGLYKVNEYVDARDTNMGAWFEAQVVRVTRKAPSRDEPCSSTSRPALEEDVIYHVKYDDYPENGVVQMNSRDVRARARTIIKWQDLEVGQVVMLNYNPDNPKERGFWYDAEISRKRETRTARELYANVVLGDDSLNDCRIIFVDEVFKIERPGEGSPMVDNPMRRKSGPSCKHCKDDVNRLCRVCACHLCGGRQDPDKQLMCDECDMAFHIYCLDPPLSSVPSEDEWYCPECRNDASEVVLAGERLRESKKKAKMASATSSSQRDWGKGMACVGRTKECTIVPSNHYGPIPGIPVGTMWRFRVQVSESGVHRPHVAGIHGRSNDGAYSLVLAGGYEDDVDHGNFFTYTGSGGRDLSGNKRTAEQSCDQKLTNTNRALALNCFAPINDQEGAEAKDWRSGKPVRVVRNVKGGKNSKYAPAEGNRYDGIYKVVKYWPEKGKSGFLVWRYLLRRDDDEPGPWTKEGKDRIKKLGLTMQYPEGYLEALANREREKENSKREEEEQQEGGFASPRTGKGKWKRKSAGGGPSRAGSPRRTSKKTKVEPYSLTAQQSSLIREDKSNAKLWNEVLASLKDRPASGSPFQLFLSKVEETFQCICCQELVFRPITTVCQHNVCKDCLDRSFRAQVFSCPACRYDLGRSYAMQVNQPLQTVLNQLFPGYGNGR
Consider B1, for which, in assay [1], the binding entry is “binds”.

B2: transcription factor LSF (Late SV40 Factor), endogenous (protein, UniProt Q12800 1-502)
chain: MAWALKLPLADEVIESGLVQDFDASLSGIGQELGAGAYSMSDVLALPIFKQEESSLPPDNENKILPFQYVLCAATSPAVKLHDETLTYLNQGQSYEIRMLDNRKLGELPEINGKLVKSIFRVVFHDRRLQYTEHQQLEGWRWNRPGDRILDIDIPMSVGIIDPRANPTQLNTVEFLWDPAKRTSVFIQVHCISTEFTMRKHGGEKGVPFRVQIDTFKENENGEYTEHLHSASCQIKVFKPKGADRKQKTDREKMEKRTPHEKEKYQPSYETTILTECSPWPEITYVNNSPSPGFNSSHSSFSLGEGNGSPNHQPEPPPPVTDNLLPTTTPQEAQQWLHRNRFSTFTRLFTNFSGADLLKLTRDDVIQICGPADGIRLFNALKGRMVRPRLTIYVCQESLQLREQQQQQQQQQQKHEDGDSNGTFFVYHAIYLEELTAVELTEKIAQLFSISPCQISQIYKQGPTGIHVLISDEMIQNFQEEACFILDTMKAETNDSYHIILK
Turning to B2, the binding entry in assay [2] was “binds”.
